PubChem BioAssay AID652259 – Drosophila RNAi Screening Center | 2013
In all, the deposit lists about 22,000 reagents; shown is an unselected part of those with a known target gene and a result. Over the whole deposit, 233 (1.1%) are marked active. 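Light values are raw, unnormalised plate reads; the ratio scores behind the reporter calls were not deposited.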 Entries without a mark were called inactive. Names joined by + are all predicted targets of the reagent. The record does not give: the amount of reagent, the time to read-out, the dose of the treatment.

Screen: 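Genome-wide hunt for genes that control Wingless pathway activity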 (primary screen)
Cells: Drosophila clone 8 imaginal disc epithelial cells
Knock-down reagent: long dsRNA against Drosophila genes
Challenge: pathway stimulated by co-transfected Wingless expression plasmid
Measured: 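Dual luciferase reads per well after Wingless plasmid stimulation: reporter firefly light and Renilla control light; activity is firefly divided by Renilla, a ratio not deposited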
Direction: firefly reporter light: higher = more Wg reporter light, before normalisation; Renilla control light: higher = more transfected or surviving cells
Call rule: 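a knock-down is a candidate when at least two out of four statistical tests show it departing from its plate mean; one test alone signals a weak candidate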
Meaning of the calls: active = candidate regulator (raises or lowers reporter); inactive = not a candidate

no.	predicted target	DRSC id	firefly reporter light, replicate 1	firefly reporter light, replicate 2	Renilla control light, replicate 1	Renilla control light, replicate 2
1	CG30053	DRSC07260	4993		1104	
2	Gr89a (Gustatory receptor 89a)	DRSC15023	12774		4877	
3	CG3708	DRSC18646	26166		14424	
4	Cen (Centrocortin)	DRSC02704	11993		2359	
5	CG7650	DRSC10898	9593	6.76e5	5449	2.44e5
6	BomBc2 (Bomanin Bicipital 2)	DRSC06502	3776		1515	
7	tin (tinman)	DRSC17083	36853		9197	
8	tin (tinman)	DRSC22853	2.94e5	3.43e5	78829	1.14e5
9	GABPI (beta4GalNAcTB pilot)	DRSC00494	7185		3192	
10	Nubp1 (NUBP iron-sulfur cluster assembly factor 1)	DRSC02639	5818		1979	
11	Ama (Amalgam)	DRSC12489	2999		1432	
12	cGlr1 (cGAS-like receptor 1)	DRSC06270	4087		2304	
13	CG34323	DRSC18916	5200		1928	
14	CG30419	DRSC04208	2952	9728	962	3562
15	CG30419	DRSC04209	4868	8676	1143	3541
16	CG30419	DRSC22519	9.57e5	9.33e5	4.38e5	4.12e5
17	CG13907	DRSC08377	18040		4732	
18	Ir7a (Ionotropic receptor 7a)	DRSC17866	21335		10141	
19	La (La autoantigen-like)	DRSC03358	4281	7776	428	2946

Laid out differently: results already given.
{"predicted target":"BomBc2 (Bomanin Bicipital 2)","DRSC id":"DRSC06502","firefly reporter light, replicate 1":3776,"Renilla control light, replicate 1":1515}
{"predicted target":"tin (tinman)","DRSC id":"DRSC17083","firefly reporter light, replicate 1":36853,"Renilla control light, replicate 1":9197}

Further records follow:
no.	predicted target	DRSC id	firefly reporter light, replicate 1	firefly reporter light, replicate 2	Renilla control light, replicate 1	Renilla control light, replicate 2
20	CG1344	DRSC04837	8844		3044	
21	Gr64d + Gr64e	DRSC08446	7088	8.45e5	3565	4.27e5
22	RunxA (Runt related A)	DRSC20400	4576		1372	
23	RunxA (Runt related A)	DRSC20498	17223		3447	
24	RunxA (Runt related A)	DRSC20524	17656		9720	
25	RunxA (Runt related A)	DRSC21915	6.84e5	6.90e5	3.02e5	3.10e5
26	CG6333	DRSC10626	6836		3152	
27	CG6118	DRSC15968	14997		1395	
28	Cyp6a18 (Cytochrome P450 6a18)	DRSC16632	9792		2808	
29	eIF3d2 (eukaryotic translation initiation factor 3 subunit d2)	DRSC15651	7440		3494	
